{"source": "paper PMC12040169", "about": "(PLOS Biology, 2025)", "note": "The list shows a part of the results."}
{"system": "T1, CTL2-GFP (C. trachomatis L2/434/Bu, GFP-expressing)", "T1 construct": "L2/434/Bu, GFP-expressing", "set-up": "species or system HeLa; Intracellular C. trachomatis growth in HeLa cells, bulk GFP fluorescence relative to DMSO", "conditions": "bulk GFP, single well; 28.5 h, 10 µM; inhibitor", "units": {"% of control remaining": "%"}}
{"molecule": "CCN(Cc1ccccc1)Cc1nc2ccccc2c(=O)[nH]1", "note": "[CBK283203]", "% of control remaining": 102.107}
{"molecule": "CCOc1ccccc1C(=O)N1CCC(Cc2ccc(-c3ccccc3)cc2)(C(N)=O)CC1", "note": "[CBK285775]", "% of control remaining": 125.44}
{"molecule": "S=C1NCCN1c1nnc(-c2cccs2)[nH]1", "note": "[CBK007096]", "% of control remaining": 96.5813}
{"molecule": "CN(C)CCO/N=C(\\c1ccccc1)c1ccncc1", "note": "[CBK261095G]", "% of control remaining": 115.321}
{"molecule": "COCCCOc1nc2cc(Cl)c(Cl)cc2nc1N1CCCC1", "note": "[CBK115773]", "% of control remaining": 104.79}
{"molecule": "CCN(CC)CCN(C(=O)NCCCSC)C(C)c1ccc(OC)c(OC)c1", "note": "(centres unmarked) [CBK158803]", "% of control remaining": 120.383}
{"molecule": "Cn1c(=O)n(Cc2ccccn2)c(=O)c2cnc(-c3ccncc3)nc21", "note": "[CBK288592]", "% of control remaining": 116.503}
{"molecule": "O=C(Cc1c[nH]cn1)Nc1ccc2cc[nH]c2c1", "note": "[CBK160059]", "% of control remaining": 119.242}
{"molecule": "Nc1nc(=O)c2cnc3ccc(F)cc3c2s1", "note": "[CBK291195]", "% of control remaining": 96.4969}
{"molecule": "COc1ccc(Cl)cc1C(=O)Nc1cc(C)c2c(=O)oc3ccccc3c2n1", "note": "[CBK291196]", "% of control remaining": 83.0281}
{"molecule": "O=C(Nc1snnc1-c1ccc(Cl)cc1)c1cccc(C(F)(F)F)c1", "note": "[CBK153246]", "% of control remaining": 23.7651}
{"molecule": "CC1CC1C(=O)N1C2CCC1CC(O)(Cn1ccc3ccncc31)C2", "note": "(centres unmarked) [CBK284653]", "% of control remaining": 147.445}
{"molecule": "CC(C)Nc1nc(-c2cccnc2)cn2ccnc12", "note": "[CBK093608]", "% of control remaining": 122.329}
{"molecule": "C/C=C/c1ccc(OCCNC2CCCC2)c(OC)c1", "note": "[CBK266399G]", "% of control remaining": 185.019}
{"molecule": "Cc1cn2c(nc1=O)OC[C@H]1O[C@@H]2C[C@H]1O", "note": "[CBK201280]", "% of control remaining": 204.005}
{"molecule": "Cc1ccc2cc(CN(Cc3ccco3)C(=O)C3CCCO3)c(O)nc2c1", "note": "(centres unmarked) [CBK269300]", "% of control remaining": 92.0879}
{"molecule": "Cc1ccc2cc(C(=O)N3CCCCC3CN3CCOCC3)[nH]c2c1", "note": "(centres unmarked) [CBK304374]", "% of control remaining": 110.249}
{"molecule": "O=C(CNC(=O)c1ccco1)Nc1cccc(-c2nc3ccccc3s2)c1", "note": "[CBK295142]", "% of control remaining": 159.289}
{"molecule": "Cc1cc(C)n(CC(=O)NC2CCCOc3c(F)cccc32)n1", "note": "(centres unmarked) [CBK305553]", "% of control remaining": 120.13}
{"molecule": "CCNc1cc(-c2ccc(CC(C)C)cc2)ncn1", "note": "[CBK090884]", "% of control remaining": 113.29}
{"molecule": "COc1ccc(Nc2nc(N)nc(CSCCO)n2)cc1", "note": "[CBK266714]", "% of control remaining": 162.029}
{"molecule": "O=C(N[C@@H](Cn1ccc(=O)[nH]c1=O)C(=O)O)C1CCCCC1", "note": "[CBK289651]", "% of control remaining": 134.072}
{"molecule": "Cc1cc(C)n(C(=O)c2cn3cc(Cl)ccc3n2)n1", "note": "[CBK288185]", "% of control remaining": 95.7352}
{"molecule": "c1coc(-c2nc3n(n2)CCS3)c1", "note": "[CBK007565]", "% of control remaining": 168.528}
{"molecule": "CC(C)Nc1nc2ccccc2nc1OCCCN(C)C", "note": "[CBK113416]", "% of control remaining": 89.0813}
{"molecule": "COc1cc(/C=C2\\C(=O)N(c3ccc(NC(C)=O)cc3)N=C2c2ccccc2)ccc1O", "note": "[CBK265664]", "% of control remaining": 100}
{"molecule": "CC(NC(=O)N1CCN(CCc2ccccc2)CC1)c1ccccc1", "note": "(centres unmarked) [CBK158935]", "% of control remaining": 140.378}
{"molecule": "COc1ccc(C(=O)N2CCN(Cc3cccnc3)CC2)cc1OC", "note": "[CBK263321]", "% of control remaining": 121.878}
{"molecule": "C[C@@H]1CN(C(=O)c2ccc3[nH]nnc3c2)C[C@H](C)O1", "note": "[CBK200369]", "% of control remaining": 71.2441}
{"molecule": "CCCC/C=C/c1cncc(N[C@H](CO)C(C)C)n1", "note": "[CBK065314]", "% of control remaining": 166.175}
{"molecule": "COc1ccc(N2CCN(c3nccnc3-c3ccc(C(C)=O)s3)CC2)cc1OC", "note": "[CBK036968]", "% of control remaining": 86.794}
{"molecule": "NCCCNC(=O)c1ccc(/C=N/O)nc1", "note": "[CBK264524]", "% of control remaining": 100}
{"molecule": "Cc1ccc2oc(CN3CCC(O)(c4cccnc4)CC3)c(C)c2c1", "note": "[CBK282816]", "% of control remaining": 167.594}
{"molecule": "Cc1csc(C(Cc2ccsc2)NC(=O)CCn2cccn2)n1", "note": "(centres unmarked) [CBK285149]", "% of control remaining": 115.619}
{"molecule": "Cc1nn(CCC(=O)NCCN2CCC(C)CC2)c(C)c1Cl", "note": "[CBK281571]", "% of control remaining": 111.499}
{"molecule": "CC(=O)N(C)c1ccc(NC(=O)c2ccccc2C(=O)O)cc1", "note": "[CBK270693]", "% of control remaining": 137.595}
{"molecule": "COc1ccc(C)cc1S(=O)(=O)N1CCN(C(c2ccccc2)c2ccccc2)CC1", "note": "[CBK263977]", "% of control remaining": 102.331}
{"molecule": "O=C(O)/C=C/C(=O)Nc1ccccc1C(=O)O", "note": "[CBK261461]", "% of control remaining": 106.189}
{"molecule": "Cc1cc2ccccc2n1CC(=O)N1CCn2cnnc2C1", "note": "[CBK282209]", "% of control remaining": 105.096}
{"molecule": "O=[N+]([O-])c1ccc(N(CCO)CCO)c2nonc12", "note": "[CBK261447]", "% of control remaining": 100}
{"molecule": "Cc1noc(C)c1S(=O)(=O)Nc1c(C(=O)Nc2ccc(F)cc2)[nH]c2ccccc12", "note": "[CBK050099]", "% of control remaining": 88.3704}
{"molecule": "COC(=O)CN1CCCC[C@H]2CN(C(=O)C3CCC3)C[C@H]21", "note": "[CBK285496]", "% of control remaining": 108.981}
{"molecule": "CC(Nc1cccc2ccccc12)C(=O)N/N=C/c1c(O)ccc2ccccc12", "note": "(centres unmarked) [CBK262678]", "% of control remaining": 34.1138}
{"molecule": "COCCN1C(=O)c2ccc(C(=O)c3ccc4c(c3)C(=O)N(CCOC)C4=O)cc2C1=O", "note": "[CBK268641]", "% of control remaining": 155.285}
{"molecule": "Cc1ccc(-c2n[nH]c(=O)o2)cc1Br", "note": "[CBK288443]", "% of control remaining": 150.063}
{"molecule": "O=C(NCc1ccco1)c1cc(Br)cnc1N1CCOCC1", "note": "[CBK076268]", "% of control remaining": 121.174}
{"molecule": "OCCCc1[nH]nc(-c2ccc(Cl)cc2)c1Br", "note": "[CBK006993]", "% of control remaining": 67.0223}
{"molecule": "COc1ccc(C(CNC(=O)C2C(C(=O)O)C2(C)C)N(C)C)cc1", "note": "(centres unmarked) [CBK286700]", "% of control remaining": 91.9474}
{"molecule": "Cc1ccc2c(c1)C(=O)NCC1(CCN(C(=O)C3CC3)CC1)O2", "note": "[CBK284835]", "% of control remaining": 104.699}
{"molecule": "O=C(Cc1ccc([N+](=O)[O-])cc1)Nc1cc(C(=O)O)cc(C(=O)O)c1", "note": "[CBK263345]", "% of control remaining": 131.866}
{"molecule": "Cn1c(=O)n(C)c2cc(CNC(=O)COCC3CCCCO3)ccc21", "note": "(centres unmarked) [CBK307061]", "% of control remaining": 129.687}
{"molecule": "COc1ccc(C)cc1S(=O)(=O)Nc1cc(Cl)ccc1C(=O)NCc1ccccc1", "note": "[CBK113954]", "% of control remaining": 97.411}
{"molecule": "Cc1cc(C)[n+](-c2ccccc2O)c(C)c1", "note": "[CBK005458G]", "% of control remaining": 106.088}
